Assay results as given in US20210139593A1 (UNIVERSIDAD DE CHILE, published 2021).
No constants are given. Whether binding was seen depends on the method and setting. Some results given as binding are weak or reduced against the parent protein; the word gives no strength.

T1: recombinant MICA (rMICA) (UniProt Q29983)
T1 sequence (looked up): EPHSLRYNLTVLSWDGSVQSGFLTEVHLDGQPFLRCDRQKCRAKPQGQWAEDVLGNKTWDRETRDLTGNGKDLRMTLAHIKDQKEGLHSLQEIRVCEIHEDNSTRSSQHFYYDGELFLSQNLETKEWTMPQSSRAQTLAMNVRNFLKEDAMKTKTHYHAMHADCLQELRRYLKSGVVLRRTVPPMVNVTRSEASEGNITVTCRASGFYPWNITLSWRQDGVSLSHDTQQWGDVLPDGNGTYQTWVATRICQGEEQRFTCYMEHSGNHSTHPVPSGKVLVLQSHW

T2: native MICA on AGS and MKN-45 gastric cancer cells (human) (UniProt Q29983)
T2 sequence (looked up): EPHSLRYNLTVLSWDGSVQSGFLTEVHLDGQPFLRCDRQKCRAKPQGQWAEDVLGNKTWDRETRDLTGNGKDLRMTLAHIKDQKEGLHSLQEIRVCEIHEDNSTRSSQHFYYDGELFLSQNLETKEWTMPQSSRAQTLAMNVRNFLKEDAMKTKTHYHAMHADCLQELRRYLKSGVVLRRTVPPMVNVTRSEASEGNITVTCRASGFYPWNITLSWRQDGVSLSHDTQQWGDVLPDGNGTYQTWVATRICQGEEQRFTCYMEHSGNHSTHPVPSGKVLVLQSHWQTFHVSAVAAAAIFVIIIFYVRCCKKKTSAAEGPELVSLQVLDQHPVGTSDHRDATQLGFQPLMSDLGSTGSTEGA

B1: viral particle that expresses anti-MICA scFv (scFv-aMICA-phage) (scFv, not shown: large carriers)
scFv: EFGVVMTQSPDFQSVTPKEKVTITCRASQSIGRSIHWYQQKPDQSPKLLVMYASQSFSGVPSRFSGSGSGTDFTLTINSLEAEDAATYYCHQSYSVPRSFGQGTKLEIKRTVAAGGSSRSSSSGGGGSGGGGQVQLQESGPGLVKPSQTLSLTCTVSGDSVRSAYSSWNWIRQPPGKGLEWIGQIHPNGNTYYNPSLMSRITVSIDTSKNQFSLKLDSVTAADTAVYFCATEGVTSESGSFDIWGQGRMVIVSSASTKGPSVAS
B2: anti-MICA scFv protein (scFv-aMICA) (scFv)
scFv: B1 scFv
notes: Monomeric soluble scFv produced from the phagemid pUCH1 Amber; also called scFv-MICA

Tests used:
[1] = target: T1, recombinant MICA (rMICA); test: phage ELISA on plates coated with rMICA
[2] = target: T2, native MICA on AGS and MKN-45 gastric cancer cells (human); test: flow cytometry of phage clones on native MICA
[3] = target: T1, recombinant MICA (rMICA); test: ELISA on rMICA

| Binder | binding [1] | binding [2] | binding [3] |
| --- | --- | --- | --- |
| B1 | binds | binds | – |
| B2 | – | – | binds |
